Test results published in article PMC11530130, “Peripherally restricted PICK1 inhibitor mPD5 ameliorates pain behaviors in murine inflammatory and neuropathic pain models” (JCI Insight, 2024).
Values joined by “and” are separate entries in the source; they are usually repeats but may differ in a detail not shown here. Equal entries are not always repeated. This continues a long series; more values of the same kind are listed elsewhere.

Test system: mice, CFA model of inflammatory pain
Assay: CFA model of inflammatory pain, von Frey, s.c. administration
Assay type: in vivo, mouse
Conditions: CFA dose range
Protocol: Unless otherwise specified, wild type C57BL/6NRj mice (male and female, aged eight-weeks at the beginning of experiment) were used (Janvier, France). Animals were allowed at least seven days of habituation to the animal facility before initiation of experiment. Mice were group-housed in a temperature-controlled room, maintained on a 12/12hour light/dark cycle (lights on at 6 A.M) with free access to standard rodent chow (Altromin 1342 (Brogaarden, […]
Drug administration and dosing for animal experiments.
All compounds were diluted in PBS or saline (depending on control) and administered through different routes i.t. (7 μL/mouse)), i.p. (10 μL/g) or s.c. (10 μL/g)) as indicated. Doses of mPD5 were based on previous studies with TPD5 (6) with a subcutaneous dose-range included in the CFA studies further guiding dose selection for SNI, STZ and CIBP studies. Pregabalin dose was chosen based on previous experience from Phenotype Expertise (Marseilles, France). In the CIBP model, a dose of […] morphine was chosen to avoid hyperactivity, though known to provide only partial pain relief in this model. In remaining experiments, 5 mg/kg morphine was chosen, known to provide full pain relief, except for the conditioned place preference experiment, where 10 mg/kg was used instead in accordance with literature. […]
µL of IS1 (internal standard in MeOH (Labetalol & tolbutamide & Verapamil & dexamethasone & glyburide & Celecoxib 100 ng/mL for each)) and the mixture was vortexed for 10 min at 800 rpm and centrifuged for 15 min at 3220 × g at 4 ℃. An aliquot of 65 µL supernatant was transferred to a clean 96-well plate and centrifuged for 5 min at 3220 × g at 4 ℃, then the supernatant was directly injected for LC-MS/MS analysis. Plasma half-lives were determined from three points in the elimination phase. In a separate experiment, biodistribution was assessed (plasma, CSF, spinal cord, whole brain) at two hours after single dose of 10 µmol/kg or one hour after last injection in the repeated administration paradigm (10 µmol/kg followed by four s.c. administrations of 2 µmol/kg with one hour between). At these times, plasma levels were similar between the two paradigms. Plasma, CSF, and tissue samples (kept at 4 ℃) were processed and analysed as described above.
Concentration 10 µmol/kg: Wild type mice were habituated to the experimental room for a minimum of 60 min before initiation of the experiment. Female and male mice were run on separate days. Mice were injected s.c. with 10 μmol/kg mPD5 or sterile PBS directly before being placed in open field boxes (40 cm x 40 cm x 80 cm) for 2.5 hours with up to four mice in boxes at any one time. A video camera placed above the open field recorded the animals’ behaviour and Ethovision XT 13 (Noldus) was used to track the distance travelled by the […]
Concentration 30 + 50 µmol/kg: Animals were habituated to the experimental room for a minimum of 60 min before initiation of the experiment. At initiation of experiment, the mice (all male) were injected subcutaneously (s.c.) with mPD5 (30 or 50 μmol/kg, pH adjusted to approximately 7 with 5 M NaOH) or 0.9 % saline (B.Braun, Germany) and left in their home cage for 60 min. After exactly one hour, the mice were placed in an open field (40 cm x 40 cm x 80 cm) for 60 min. A video camera placed above the open field recorded the animals’ […]
animal. The experiment was run in cohort with Figure 2B+C of (9)).
Induction of inflammatory pain (CFA model).
Injury was induced on the right hind paw, whereas the contralateral left hind paw was used as internal control of the C57BL/6J male and female mice (Janvier, France). The inflammatory pain was induced by injection of 50 μL undiluted Complete Freund’s Adjuvant (CFA) (F5881, Sigma) unilaterally into the intraplantar surface of the right hind paw, whereas control mice were injected with the same amount of 0.9 % saline (B. Braun, Germany). All intraplantar injections were performed with an insulin needle (0.3 mL BD Micro-Fine) while the animal […]

SMILES: CCCCCCCCCCCCCC(=O)N(CCOCCOCCC(=O)N[C@@H](Cc1c[nH]cn1)C(=O)N[C@@H](Cc1c[nH]c2ccccc12)C(=O)N[C@@H](CC(C)C)C(=O)N[C@@H](CCCCN)C(=O)N[C@H](C(=O)O)C(C)C)CCOCCOCCC(=O)N[C@@H](Cc1c[nH]cn1)C(=O)N[C@@H](Cc1c[nH]c2ccccc12)C(=O)N[C@@H](CC(C)C)C(=O)N[C@@H](CCCCN)C(=O)N[C@H](C(=O)O)C(C)C [mPD5, myristoyl-NPEG4-(HWLKV)2]
- paw withdrawal threshold (von Frey), individual mice (s.c. 2 μmol/kg, contralateral paw, 5 hrs post injection, listed as myr): 1.4 (3×) and 1 (2×)
- paw withdrawal threshold (von Frey), individual mice (s.c. 2 μmol/kg, contralateral paw, 24 hrs post injection): 1.4
- paw withdrawal threshold (von Frey), individual mice (s.c. 2 μmol/kg, ipsilateral paw, 24 hrs post injection, listed as myr): 0.16 (3×) and 0.6 and 0.4
- paw withdrawal threshold (von Frey), individual mice (s.c. 10 μmol/kg, contralateral paw, 24 hrs post injection, listed as myr): 1.4 (3×) and 1 (2×) and 2
- paw withdrawal threshold (von Frey), individual mice (s.c. 10 μmol/kg, ipsilateral paw, 24 hrs post injection, listed as myr): 0.16 (5×) and 0.4
- paw withdrawal threshold (von Frey), individual mice (s.c. 50 μmol/kg, contralateral paw, 24 hrs post injection, listed as myr): 1.4 (3×) and 2 and 1
- paw withdrawal threshold (von Frey), individual mice (s.c. 50 μmol/kg, ipsilateral paw, 5 hrs post injection, listed as myr): 0.4
- paw withdrawal threshold (von Frey), individual mice (s.c. 50 μmol/kg, ipsilateral paw, 24 hrs post injection, listed as myr): 0.07 and 0.16 and 0.4 (3×)
